Measurements reported in the supplement of paper PMC12823440, “Inhibitors supercharge kinase turnover through native proteolytic circuits” (Nature, 2025).
Counter-ions that a name gives are not always drawn. The list shows a part of the results. Hit calls seldom repeat between salt and free forms of one compound.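 Kinases were expressed as nanoluciferase fusions in K562 cells and luminescence was read every 4 h between 2 and 18 h as percent of control, DMSO set to 100% and a positive control to 0%. A time point counts as decreased when the signal drops significantly (2 sigma). The hit call is the authors' own, does not follow from the count of time points alone, and its rule is not shown.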

Chains of the proteins cited; added tags and fusions are not shown. Lines headed by an entry give the natural chain unless they say otherwise; changes in a name come on top.
UniProt P07947, whole entry, looked up: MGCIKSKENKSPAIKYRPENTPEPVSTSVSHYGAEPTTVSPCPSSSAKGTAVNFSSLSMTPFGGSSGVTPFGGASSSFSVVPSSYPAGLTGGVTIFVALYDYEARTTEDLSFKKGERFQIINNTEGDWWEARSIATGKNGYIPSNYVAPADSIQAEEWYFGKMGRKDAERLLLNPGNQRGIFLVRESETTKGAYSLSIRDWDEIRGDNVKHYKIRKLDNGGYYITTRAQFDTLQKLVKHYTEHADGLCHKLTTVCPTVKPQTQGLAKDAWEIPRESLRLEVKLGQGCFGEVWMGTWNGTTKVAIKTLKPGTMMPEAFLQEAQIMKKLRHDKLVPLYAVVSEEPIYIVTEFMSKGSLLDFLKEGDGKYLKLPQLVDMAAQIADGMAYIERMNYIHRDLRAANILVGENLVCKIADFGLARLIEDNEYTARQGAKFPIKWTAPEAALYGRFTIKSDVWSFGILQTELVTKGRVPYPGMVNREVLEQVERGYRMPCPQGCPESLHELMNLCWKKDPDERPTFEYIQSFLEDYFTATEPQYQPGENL
UniProt P43403: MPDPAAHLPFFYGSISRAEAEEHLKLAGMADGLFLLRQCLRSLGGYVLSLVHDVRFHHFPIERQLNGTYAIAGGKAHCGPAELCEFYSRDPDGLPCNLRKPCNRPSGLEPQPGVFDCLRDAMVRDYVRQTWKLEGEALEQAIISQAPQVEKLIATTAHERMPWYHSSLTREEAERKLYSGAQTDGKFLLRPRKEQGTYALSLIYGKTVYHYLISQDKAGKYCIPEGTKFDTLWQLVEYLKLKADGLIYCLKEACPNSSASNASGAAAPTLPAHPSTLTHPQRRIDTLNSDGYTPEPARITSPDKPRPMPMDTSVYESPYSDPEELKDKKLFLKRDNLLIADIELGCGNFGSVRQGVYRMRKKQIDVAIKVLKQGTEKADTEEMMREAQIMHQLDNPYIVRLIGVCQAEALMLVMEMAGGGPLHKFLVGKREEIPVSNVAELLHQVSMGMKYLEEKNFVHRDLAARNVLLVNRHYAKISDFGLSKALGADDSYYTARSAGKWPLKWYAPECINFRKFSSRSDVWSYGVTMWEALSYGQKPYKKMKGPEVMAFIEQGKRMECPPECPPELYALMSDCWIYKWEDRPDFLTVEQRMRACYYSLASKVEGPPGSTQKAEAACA
UniProt P11802: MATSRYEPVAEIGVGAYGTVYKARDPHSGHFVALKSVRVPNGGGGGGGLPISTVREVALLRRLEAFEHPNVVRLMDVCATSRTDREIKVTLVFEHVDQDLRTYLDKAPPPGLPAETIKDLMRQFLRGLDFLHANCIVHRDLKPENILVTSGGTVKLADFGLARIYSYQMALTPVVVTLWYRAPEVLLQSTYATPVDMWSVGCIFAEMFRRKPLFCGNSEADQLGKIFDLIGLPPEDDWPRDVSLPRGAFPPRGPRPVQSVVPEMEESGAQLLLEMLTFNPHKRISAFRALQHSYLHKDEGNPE
UniProt P50613: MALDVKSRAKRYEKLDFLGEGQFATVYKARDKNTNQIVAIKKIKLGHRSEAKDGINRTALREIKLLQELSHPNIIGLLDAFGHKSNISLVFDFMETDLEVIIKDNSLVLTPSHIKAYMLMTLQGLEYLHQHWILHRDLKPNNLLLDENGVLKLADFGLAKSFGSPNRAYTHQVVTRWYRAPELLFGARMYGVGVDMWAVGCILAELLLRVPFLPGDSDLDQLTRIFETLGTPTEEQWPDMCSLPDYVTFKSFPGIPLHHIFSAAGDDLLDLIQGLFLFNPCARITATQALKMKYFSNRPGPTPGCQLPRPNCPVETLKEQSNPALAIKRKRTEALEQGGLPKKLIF
UniProt P50750, whole entry: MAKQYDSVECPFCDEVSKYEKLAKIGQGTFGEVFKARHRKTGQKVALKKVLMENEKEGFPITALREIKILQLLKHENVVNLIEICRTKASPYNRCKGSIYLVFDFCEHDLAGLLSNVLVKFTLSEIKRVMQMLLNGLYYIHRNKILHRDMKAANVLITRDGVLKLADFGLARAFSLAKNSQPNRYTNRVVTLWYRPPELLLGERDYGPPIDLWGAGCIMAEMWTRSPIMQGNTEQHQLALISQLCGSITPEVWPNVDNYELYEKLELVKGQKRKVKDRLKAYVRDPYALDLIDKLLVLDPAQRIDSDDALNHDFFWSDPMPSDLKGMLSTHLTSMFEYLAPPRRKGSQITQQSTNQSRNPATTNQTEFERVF

Experiments:
Details in all cases: K562; 2-18 h
YES1 = YES1 (UniProt P07947); assay: number of time points (of 5) at which kinase-Nluc abundance scored as decreased, DMSO-normalised (count); higher = more persistent destabilization
ZAK = ZAK (UniProt Q9NYL2); assay: as above
ZAP70 = ZAP70 (UniProt P43403); assay: as above
CDK4 = CDK4 (UniProt P11802); assay: number of time points (of 4; 2 h point missing) at which kinase-Nluc abundance scored as decreased, DMSO-normalised (count); higher = more persistent destabilization
CDK7 = CDK7 (UniProt P50613); assay: as above
CDK9 = CDK9 (UniProt P50750); assay: as above

Row | SMILES | number of time points (YES1) | number of time points (ZAK) | number of time points (ZAP70) | number of time points (CDK4) | number of time points (CDK7) | number of time points (CDK9)
1 | O=c1[nH]nc(Sc2ncc([N+](=O)[O-])s2)n1-c1ccc2c(c1)OCCO2 (2.5 µM) | 0 | 0 | 0 | 0 | 0 | 0
2 | Cn1cc(C2=C(c3c4n(c5ccccc35)CCC(CN)C4)C(=O)NC2=O)c2ccccc21 (centres undefined) [Bisindolylmaleimide X (hydrochloride)] (2.5 µM) | 0 | 0 | 0 | 0 | 0 | 0
3 | CCc1nc(C(N)=O)c(Nc2ccc(N3CCC(N4CCN(C)CC4)CC3)c(OC)c2)nc1NC1CCC(OC)CC1 (centres undefined) [EML4-ALK kinase inhibitor 1] (2.5 µM) | 0 | 0 | 0 | 0 | 0 | 0
4 | CC1=C(C(=O)Nc2ccc3[nH]ncc3c2)C(c2ccc(F)c(C(=O)NCc3ccccn3)c2)NC(=O)N1 (centres undefined) (10 µM) | 0 | 0 | 0 | 0 | 0 | 0
5 | COc1ccc(F)cc1C(=O)NCc1ccc(-c2nn([C@@H](C)C(F)(F)F)c(N)c2C(N)=O)cc1 [Pirtobrutinib] (10 µM) | 0 | 0 | 0 | 0 | 0 | 0
6 | Cc1ccc(CNC(=O)N2CCC[C@]3(CCN(Cc4ccc(Cl)c(Cl)c4)C3)C2)cc1 (10 µM) | 0 | 0 | 0 | 0 | 0 | 0
7 | O=C(CCc1ccc2n1[B-](F)(F)[N+]1=C(c3ccc[nH]3)C=CC1=C2)ON1C(=O)CCC1=O [Py-BODIPY-NHS ester] (2.5 µM) | 0 | 0 | 0 | 0 | 0 | 0
8 | O=S(=O)(N=Cc1c(O)ccc2ccccc12)c1cccs1 (10 µM) | 0 | 0 | 0 | 0 | 0 | 0
9 | Cn1cc(-c2ccc3nnc(Sc4ccc5nn(C)cc5c4)n3n2)cn1 [c-Met inhibitor 1] (10 µM) | 0 | 0 | 0 | 0 | 0 | 0
10 | Oc1ccc2ccccc2c1SSc1c(O)ccc2ccccc12 (10 µM) | 0 | 0 | 0 | 0 | 0 | 0
11 | C[C@@H](N)COc1ccc(-c2cnc3ccc(N[C@H](C)c4cccc(F)c4)nn23)cc1 [Taletrectinib] (2.5 µM) | 0 | 0 | 0 | 0 | 0 | 0
12 | Cc1nc(NC(=O)N2CCC[C@H]2C(N)=O)sc1-c1csc(C(C)(C)C)n1 (10 µM) | 0 | 0 | 0 | 0 | 0 | 0
13 | CN(C)CCCNc1ccn2ncc(-c3ccc4c(c3)OCO4)c2n1 (10 µM) | 0 | 0 | 0 | 0 | 0 | 0
14 | Cc1ccc(-n2c(-c3ccc(O)cc3O)n[nH]c2=O)cc1 (10 µM) | 3 | 1 | 0 | 1 | 4 | 2
15 | CC(C)=C/C=C1\O[C@@H]2CC(C)=CC(=O)[C@@H]2[C@]1(C)O [Bisabolangelone] (10 µM) | 0 | 0 | 0 | 0 | 0 | 0
16 | Cn1c(=O)c(Oc2ccc(F)cc2F)cc2cnc(NC(CCO)CCO)nc21 [Pamapimod] (10 µM) | 0 | 0 | 0 | 0 | 0 | 0
17 | C=CC(=O)Nc1cccc(Oc2nc(Nc3ccc(N4CCN(C)CC4)cc3)nc3ccsc23)c1 [Olmutinib] (2.5 µM) | 0 | 0 | 0 | 0 | 0 | 0
18 | CCc1ccc(NC(=O)Nc2ccccc2)cc1 (10 µM) | 0 | 0 | 0 | 0 | 0 | 0
19 | O=C(Nc1nccs1)C(c1cc(F)ccc1O)N1Cc2ccccc2C1=O (centres undefined) (10 µM) | 0 | 0 | 0 | 0 | 0 | 0
20 | COC(=O)[C@]1(C)CC[C@]2(C(=O)O[C@@H]3O[C@H](CO)[C@@H](O)[C@H](O)[C@H]3O)CC[C@]3(C)C(=CC[C@@H]4[C@@]5(C)C[C@H](O)[C@H](O[C@@H]6OC[C@@H](O[C@@H]7O[C@H](CO)[C@@H](O)[C@H](O)[C@H]7O)[C@H](O)[C@H]6O)[C@@](C)(CO)C5CC[C@]43C)[C@H]2C1 (some centres undefined) [Esculentoside H] (10 µM) | 0 | 0 | 0 | 0 | 0 | 0
21 | COc1cc(-c2cc(-c3cccc(O)c3)cnc2N)cc(OC)c1OC (2.5 µM) | 0 | 0 | 0 | 0 | 3 | 0
22 | C[C@@H](Nc1cc(F)cc(F)c1)c1cc(C(=O)N(C)C)cc2c(=O)cc(N3CCOCC3)oc12 (10 µM) | 0 | 0 | 0 | 0 | 0 | 0

Some of these compounds in order of molecular weight, descending:
Row | SMILES | number of time points (YES1) | number of time points (ZAK) | number of time points (ZAP70) | number of time points (CDK4) | number of time points (CDK7) | number of time points (CDK9)
21 | COc1cc(-c2cc(-c3cccc(O)c3)cnc2N)cc(OC)c1OC (2.5 µM) | 0 | 0 | 0 | 0 | 3 | 0
8 | O=S(=O)(N=Cc1c(O)ccc2ccccc12)c1cccs1 (10 µM) | 0 | 0 | 0 | 0 | 0 | 0
14 | Cc1ccc(-n2c(-c3ccc(O)cc3O)n[nH]c2=O)cc1 (10 µM) | 3 | 1 | 0 | 1 | 4 | 2

Additional results follow:

Row | SMILES | number of time points (YES1) | number of time points (ZAK) | number of time points (ZAP70) | number of time points (CDK4) | number of time points (CDK7) | number of time points (CDK9)
23 | Cc1cc([N+](=O)[O-])c(NS(=O)(=O)c2cccc(C(=O)O)c2)cc1-c1cccnc1 [Alofanib] (10 µM) | 0 | 0 | 0 | 0 | 0 | 0
24 | CC(C)[C@H](CO)Nc1nc(Nc2ccc(C(=O)O)c(Cl)c2)c2ncn(C(C)C)c2n1 [Purvalanol B] (10 µM) | 0 | 0 | 0 | 0 | 0 | 0
25 | O=C(N=c1sccn1Cc1ccccc1)c1c[nH]c2ncccc12 (10 µM) | 0 | 0 | 0 | 0 | 0 | 0
26 | CS(=O)(=O)N1CCN(Cc2cn3cc(-c4cnc(N)nc4)nc(N4CCOCC4)c3n2)CC1 (10 µM) | 0 | 0 | 0 | 0 | 0 | 0
27 | O=C(Nc1cc(Cl)cc(Cl)c1)Nc1cc(Cl)cc(Cl)c1 (10 µM) | 0 | 0 | 0 | 0 | 0 | 0
28 | CC(C)(O)c1cc2nc(-c3cnc(N)nc3)nc(N3CCOCC3)c2s1 (2.5 µM) | 0 | 0 | 0 | 0 | 2 | 0
29 | O=C(Nc1nccs1)C(c1cc(F)ccc1O)N1Cc2ccc(-c3ccc(N4CCNCC4)cc3)cc2C1=O (racemic) (10 µM) | 0 | 0 | 0 | 0 | 0 | 0
30 | O=C(c1ccc(NS(=O)(=O)c2cccc3cccnc23)cc1)N1CCN(CC2CC2)CC1 [Mitapivat] (10 µM) | 0 | 0 | 0 | 0 | 0 | 0
31 | Cn1sc(=O)n(Cc2ccccc2)c1=O (10 µM) | 0 | 0 | 0 | 0 | 0 | 0
32 | COc1ccc(-c2cnc3c(-c4cccc5ncccc45)cnn3c2)cc1 (10 µM) | 0 | 0 | 0 | 0 | 0 | 0
33 | Cc1occ2c1C(=O)c1c(O)ccc(O)c1C2 (2.5 µM) | 0 | 0 | 0 | 0 | 0 | 0
34 | C=CC(=O)N1CCC[C@@H](n2c(=O)n(-c3ccc(Oc4ccccc4)cc3)c3c(N)nccc32)C1 [Tolebrutinib] (10 µM) | 0 | 0 | 0 | 0 | 0 | 0
35 | CC(=O)c1cc(O)ccc1O [2,5-Dihydroxyacetophenone] (10 µM) | 0 | 0 | 0 | 0 | 0 | 0
36 | C=CC(=O)Nc1cccc(Nc2nc(Nc3ccc(Oc4ccnc(C(=O)NC)c4)cc3)ncc2F)c1 (2.5 µM) | 0 | 0 | 0 | 0 | 0 | 0
37 | O=C(Nc1nc2cccc(-c3ccc(CN4CCS(=O)(=O)CC4)cc3)n2n1)C1CC1 [Filgotinib] (2.5 µM) | 0 | 0 | 0 | 0 | 0 | 0
38 | CC[C@H](C)[C@H](NC(=O)[C@H](CCCCN)NC(=O)[C@H](CC(C)C)NC(=O)[C@@H]1CCCN1C(=O)[C@H](CCC(=O)O)NC(=O)[C@H](Cc1ccc(O)cc1)NC(=O)[C@@H](NC(=O)[C@H](CO)NC(=O)CNC(=O)[C@H](CO)NC(=O)[C@H](CCCN=C(N)N)NC(=O)[C@H](CCCCN)NC(=O)[C@@H](NC(=O)[C@@H](N)CCCN=C(N)N)[C@@H](C)O)C(C)C)C(=O)O [Malantide] (10 µM) | 0 | 0 | 0 | 0 | 0 | 0
39 | COc1ccc(C(=O)c2cn(C(C)C)c3ncnc(N)c23)cc1NC(=O)Nc1ccc(Cl)cc1Cl (10 µM) | 0 | 0 | 0 | 0 | 0 | 0
40 | CCOc1cc(C(=O)N2CCC(N3CCN(C)CC3)CC2)ccc1Nc1ncc2c(n1)N(S(C)(=O)=O)c1ccccc1C(=O)N2C (10 µM) | 0 | 0 | 0 | 0 | 0 | 0
41 | O=S(=O)(c1cccc2c(Cl)cccc12)N1CCCNCC1 (10 µM) | 0 | 0 | 0 | 0 | 0 | 0
42 | O=c1cc(-c2ccc(O)cc2)oc2cc(O)c(O)c(O)c12 [Scutellarein] (10 µM) | 0 | 0 | 0 | 0 | 0 | 0
43 | CC(C)(C)S(=O)(=O)c1ccc2nccc(Nc3n[nH]c4ccc(F)cc34)c2c1 (10 µM) | 0 | 0 | 0 | 0 | 0 | 0
44 | O=C(N/N=C/c1ccc([N+](=O)[O-])o1)c1ccc(O)cc1 [Nifuroxazide] (10 µM) | 2 | 0 | 0 | 0 | 3 | 1
